Paper PMC12320230, “BAY11-7082 Targets RNF25 to Reverse TRIP4 Ubiquitination-dependent NF-κB Activation and Apoptosis Resistance in Renal Cell Carcinoma” (International Journal of Biological Sciences, 2025)
Substitutions are numbered along the chain they refer to. These are yes or no findings as the source states them, for the method shown. Binding seen in cells or lysates may run through a third protein. Some results given as binding are weak or reduced against the parent protein; the word gives no strength. For some of these results: Sequences can lack the tags named with a protein. Each block holds one molecule with its values, some of them ahead of it.

By UniProt entry, the sequences of proteins in these tests, tags left out. Residues count along the entry.
UniProt Q04206: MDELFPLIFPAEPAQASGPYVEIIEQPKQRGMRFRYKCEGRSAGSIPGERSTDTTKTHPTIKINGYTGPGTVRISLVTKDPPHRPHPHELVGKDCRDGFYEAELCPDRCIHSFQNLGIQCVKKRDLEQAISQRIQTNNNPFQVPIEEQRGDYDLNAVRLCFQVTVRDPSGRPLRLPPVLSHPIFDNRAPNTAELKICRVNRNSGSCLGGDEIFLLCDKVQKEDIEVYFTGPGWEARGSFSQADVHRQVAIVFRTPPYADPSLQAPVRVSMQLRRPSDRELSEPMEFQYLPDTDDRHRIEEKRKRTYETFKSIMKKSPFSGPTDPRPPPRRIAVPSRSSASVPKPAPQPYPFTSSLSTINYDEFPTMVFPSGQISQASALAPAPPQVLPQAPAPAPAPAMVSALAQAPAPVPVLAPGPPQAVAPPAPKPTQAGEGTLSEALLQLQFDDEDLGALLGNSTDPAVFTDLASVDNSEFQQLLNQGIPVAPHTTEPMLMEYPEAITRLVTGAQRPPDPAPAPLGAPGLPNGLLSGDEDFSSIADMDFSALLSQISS
UniProt P19838, residues 1-433: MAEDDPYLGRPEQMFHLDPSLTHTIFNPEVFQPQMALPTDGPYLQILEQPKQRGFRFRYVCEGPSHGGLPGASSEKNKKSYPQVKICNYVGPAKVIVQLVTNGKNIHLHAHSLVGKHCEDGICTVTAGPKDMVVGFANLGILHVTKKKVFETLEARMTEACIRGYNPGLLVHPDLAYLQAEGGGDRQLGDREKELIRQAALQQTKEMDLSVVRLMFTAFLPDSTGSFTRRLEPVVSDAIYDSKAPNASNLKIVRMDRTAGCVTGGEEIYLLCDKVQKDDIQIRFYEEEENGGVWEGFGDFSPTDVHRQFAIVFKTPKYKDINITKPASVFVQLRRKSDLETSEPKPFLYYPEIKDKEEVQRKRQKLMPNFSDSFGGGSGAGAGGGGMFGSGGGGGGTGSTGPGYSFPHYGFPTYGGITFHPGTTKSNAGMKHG

Legend:
Flag-TRIP4 [1] = molecular target: T1, Flag-TRIP4 (UniProt Q15650); assay: co-IP; ectopically expressed tagged proteins, 293T cells transfected 48 h; HA-/Flag-conjugated agarose beads; IP buffer 50 mM Tris-HCl pH 7.4, 150 mM NaCl, 0.1% NP-40; also with RNF25 co-expression, RNF25 knock-down or BAY11-7082
T1 sequence: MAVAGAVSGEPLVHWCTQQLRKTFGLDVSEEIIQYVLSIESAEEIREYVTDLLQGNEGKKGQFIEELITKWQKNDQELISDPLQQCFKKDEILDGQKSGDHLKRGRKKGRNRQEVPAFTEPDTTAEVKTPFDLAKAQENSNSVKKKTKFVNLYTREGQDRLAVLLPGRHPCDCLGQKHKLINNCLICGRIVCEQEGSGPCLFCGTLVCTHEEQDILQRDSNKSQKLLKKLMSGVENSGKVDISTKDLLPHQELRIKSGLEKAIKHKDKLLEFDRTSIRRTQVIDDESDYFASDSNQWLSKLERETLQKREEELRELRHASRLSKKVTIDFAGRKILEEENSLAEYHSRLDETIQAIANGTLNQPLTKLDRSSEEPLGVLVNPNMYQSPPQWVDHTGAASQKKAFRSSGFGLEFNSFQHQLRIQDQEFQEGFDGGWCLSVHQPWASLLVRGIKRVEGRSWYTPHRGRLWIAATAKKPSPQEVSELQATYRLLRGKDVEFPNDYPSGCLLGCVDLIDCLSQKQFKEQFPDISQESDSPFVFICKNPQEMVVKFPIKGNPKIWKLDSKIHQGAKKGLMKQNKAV

Flag-TRIP4 K135R = molecular target: T2, Flag-TRIP4 K135R (UniProt Q15650); assay: as above
T2 sequence: T1 sequence with K135R

Flag-TRIP4 [2] = molecular target: T1, Flag-TRIP4; assay: co-IP; anti-Flag-TRIP4 immunoprecipitates from 293T cells, Western blot for NF-κB and IKK complex proteins
GST-TRIP4 = molecular target: T3, GST-TRIP4 (UniProt Q15650); assay: pull-down; GST-TRIP4 recombinant protein (GST-EV as control) as bait; proteins of SW839 cells pulled down, Western blot; only the target purified
T3 sequence: T1 sequence

[3] = molecular target: p65 (human (endogenous in SW839)) (UniProt Q04206); assay: co-IP; endogenous proteins in SW839 lysate; anti-RNF25 or anti-p65 antibody on protein A/G beads; IP buffer 50 mM Tris-HCl pH 7.4, 150 mM NaCl, 0.1% NP-40; also parental against ABT-199-resistant SW839 cells
[4] = molecular target: T4, RNF25 (human (endogenous in SW839)) (UniProt Q96BH1); assay: as above
T4 sequence: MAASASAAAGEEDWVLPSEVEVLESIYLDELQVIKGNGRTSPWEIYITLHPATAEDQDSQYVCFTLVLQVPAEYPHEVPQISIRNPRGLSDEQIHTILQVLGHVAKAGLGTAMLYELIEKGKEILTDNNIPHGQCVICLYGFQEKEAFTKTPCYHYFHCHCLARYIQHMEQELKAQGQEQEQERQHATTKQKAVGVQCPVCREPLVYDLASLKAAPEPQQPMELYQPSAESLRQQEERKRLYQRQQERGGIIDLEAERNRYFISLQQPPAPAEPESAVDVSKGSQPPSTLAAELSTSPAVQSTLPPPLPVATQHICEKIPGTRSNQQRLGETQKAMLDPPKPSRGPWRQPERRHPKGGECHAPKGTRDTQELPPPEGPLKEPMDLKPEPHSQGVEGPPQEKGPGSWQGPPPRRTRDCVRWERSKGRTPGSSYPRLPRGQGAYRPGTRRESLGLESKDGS

binding (Flag-TRIP4 [2]): binds
Molecule: p50 (from UniProt P19838 1-433)

binding (Flag-TRIP4 [2]): binds
binding (GST-TRIP4): binds
Molecule: p65 (from UniProt Q04206 1-551)

binding [3]: binds
binding (GST-TRIP4): binds
B2: RNF25 (protein, UniProt Q96BH1 1-459)
chain: T4 sequence

The next lines start with the molecule.

Molecule: HA-tagged p65 (from UniProt Q04206 1-551)
binding (Flag-TRIP4 [1]): binds
binding (Flag-TRIP4 K135R): binds

B1: TRIP4 (protein, UniProt Q15650 1-581)
chain: T1 sequence
binding [3]: binds
binding [4]: binds

B3: Myc-RNF25 (protein, UniProt Q96BH1 1-459)
chain: T4 sequence
binding (Flag-TRIP4 [1]): binds
